Results deposited as PubChem BioAssay AID652243 (Drosophila RNAi Screening Center, 2013)

Purpose: 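Fly regulators of androgen-dependent reporter output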 (primary screen)
Cell system: Drosophila S2R+ cells
Knock-down reagent: long dsRNA against Drosophila genes
Timing: 72 h (48 h, then 24 h hormone)
Conditions: synthetic androgen R1881 at 10 nM for 24 h
Detection: 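Per-well raw luminescence of the androgen-driven firefly reporter and of the Renilla control, two replicates each, without normalisation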
Scale: firefly reporter light: higher = more light from androgen-responsive reporter; Renilla control light: higher = more constitutive control signal (cell number, transfection)
Active means: 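Across duplicate plates, a knock-down whose log firefly/Renilla ratio shifted a set fold down or up from the GFP/LacZ control mean was a hit; the downward cut appears as both 1.5 and 3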
Calls: active = hit: reporter lowered or raised; inactive = no hit
The screen tested about 24,000 reagents; below is an unselected part of those that have a named target and a result. Over the whole deposit, 246 (1%) were called active. 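Plates not normalised; calls are printed but the firefly/Renilla ratio behind them is not deposited; fold cut for lowering reported inconsistently.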 Raw values vary from plate to plate and are shown uncorrected. A plus sign joins genes that one reagent is predicted to hit. No sequences are given here. The record does not give: the amount of reagent.

| gene knocked down | DRSC id | firefly reporter light, replicate 1 | firefly reporter light, replicate 2 | Renilla control light, replicate 1 | Renilla control light, replicate 2 | activity call |
| --- | --- | --- | --- | --- | --- | --- |
| spirit (GeneID 31797) | DRSC18202 | 1.30e5 | 53628 | 3.90e5 | 5.42e5 | inactive |
| spirit (GeneID 31797) | DRSC25748 | 7.69e5 | 6.07e5 | 7.79e5 | 6.06e5 | inactive |
| Syx4 (GeneID 31269) | DRSC18586 | 4.22e5 | 3.65e5 | 4.88e6 | 4.66e6 | inactive |
| Syx4 (GeneID 31269) | DRSC27586 | 2.01e5 | 2.33e5 | 3.21e5 | 5.61e5 | inactive |
| pgc (GeneID 5740599) | DRSC04099 | 3.13e5 | 2.59e5 | 1.39e6 | 1.16e6 | inactive |
| Cpr50Ca (GeneID 36523) | DRSC05454 | 1.20e5 | 2.34e5 | 3.34e5 | 4.10e5 | inactive |
| Cpr50Ca (GeneID 36523) | DRSC06372 | 63188 | 98578 | 1.51e6 | 1.51e6 | inactive |
| Cpr50Ca (GeneID 36523) | DRSC06375 | 78533 | 85819 | 2.58e6 | 2.58e6 | inactive |
| CG6693 (GeneID 41346) | DRSC16097 | 75774 | 50537 | 4.25e5 | 3.34e5 | inactive |
| CG6693 (GeneID 41346) | DRSC28189 | 4.44e5 | 3.87e5 | 2.02e6 | 1.54e6 | inactive |
| mRpL28 (GeneID 33715) | DRSC02724 | 1.82e5 | 1.15e5 | 2.35e6 | 9.29e5 | inactive |
| Or94b (GeneID 42712) | DRSC16773 | 2.61e5 | 2.42e5 | 2.42e6 | 2.31e6 | inactive |
| Or94b (GeneID 42712) | DRSC27188 | 2.57e5 | 2.50e5 | 7.41e5 | 7.30e5 | inactive |
| CG10470 (GeneID 35174) | DRSC02061 | 83632 | 95000 | 1.28e6 | 1.23e6 | inactive |
| Snx17 (GeneID 34354) | DRSC02884 | 5.44e5 | 7.18e5 | 2.37e6 | 2.27e6 | inactive |
| Snx17 (GeneID 34354) | DRSC28893 | 4.15e5 | 4.83e5 | 1.05e6 | 9.87e5 | inactive |
| GPHR (GeneID 36682) | DRSC07075 | 80795 | 72687 | 1.44e6 | 1.44e6 | inactive |
| RpL22 (GeneID 31022) | DRSC18707 | 1.76e5 | 2.05e5 | 1.30e6 | 1.00e6 | inactive |
| RpL22 (GeneID 31022) | DRSC22819 | 2.43e5 | 3.65e5 | 4.59e5 | 8.07e5 | inactive |
| Rel (GeneID 41087) | DRSC16819 | 87354 | 50618 | 4.78e5 | 4.59e5 | inactive |
| SerT (GeneID 37895) | DRSC04655 | 2.60e5 | 2.34e5 | 2.21e6 | 2.47e6 | inactive |
| SerT (GeneID 37895) | DRSC28934 | 4.10e5 | 3.98e5 | 1.20e6 | 1.22e6 | inactive |
| CG6959 (GeneID 41434) | DRSC16151 | 1.15e5 | 2.16e5 | 1.99e6 | 2.48e6 | inactive |
| IA-2 (GeneID 33277) | DRSC00304 | 5.93e5 | 8.19e5 | 2.37e6 | 2.74e6 | inactive |
| IA-2 (GeneID 33277) | DRSC00652 | 3.90e5 | 4.87e5 | 1.94e6 | 1.38e6 | active |
| IA-2 (GeneID 33277) | DRSC23335 | 5.81e5 | 5.54e5 | 1.47e6 | 1.48e6 | inactive |
| IA-2 (GeneID 33277) | DRSC24588 | 4.00e5 | 4.64e5 | 4.51e5 | 4.79e5 | inactive |
| IA-2 (GeneID 33277) | DRSC36830 | – | – | – | – | inactive |
| IA-2 (GeneID 33277) | DRSC36831 | – | – | – | – | inactive |
| CG13991 (GeneID 33868) | DRSC02323 | 2.08e5 | 1.40e5 | 2.34e6 | 1.61e6 | inactive |
| fzy (GeneID 34968) | DRSC03534 | 1.81e5 | 2.05e5 | 1.29e6 | 1.17e6 | inactive |
| mxc (GeneID 31869) | DRSC17819 | 2.04e5 | 2.86e5 | 2.27e6 | 2.67e6 | inactive |
| wek (GeneID 48785) | DRSC03561 | 1.01e6 | 1.17e6 | 1.43e6 | 1.80e6 | inactive |
| loqs (GeneID 34751) | DRSC02997 | 1.54e5 | 2.28e5 | 1.81e6 | 1.77e6 | inactive |
| CG6106 (GeneID 32816) | DRSC19971 | 5.02e5 | 8.06e5 | 4.16e6 | 5.69e6 | inactive |
| CG6106 (GeneID 32816) | DRSC29276 | 4.71e5 | 4.95e5 | 1.03e6 | 1.25e6 | inactive |
| CG34214 (GeneID 5740774) | DRSC04490 | 6.91e5 | 4.46e5 | 9.77e5 | 7.22e5 | inactive |
| SMC6 (GeneID 42876) | DRSC15829 | 2.29e5 | 2.48e5 | 3.39e6 | 3.44e6 | inactive |
| SMC6 (GeneID 42876) | DRSC25997 | 4.20e5 | 4.40e5 | 8.99e5 | 7.46e5 | inactive |
| CG15472 (GeneID 31409) | DRSC18055 | 1.84e5 | 2.81e5 | 2.16e6 | 1.62e6 | inactive |
| CG42245 + MEP-1 | DRSC07993 | 1.80e5 | 1.88e5 | 4.88e5 | 6.48e5 | inactive |
| CG42245 + MEP-1 | DRSC08274 | 1.00e6 | 4.79e5 | 9.88e5 | 7.08e5 | inactive |
| CG42245 + MEP-1 | DRSC21460 | 8.70e5 | 9.28e5 | 2.13e6 | 2.25e6 | inactive |
| CG42245 + MEP-1 | DRSC29362 | 5.09e5 | 6.11e5 | 7.90e5 | 7.90e5 | inactive |
| Ist1 (GeneID 38750) | DRSC09697 | 1.08e6 | 9.57e5 | 8.05e5 | 1.09e6 | inactive |
| Ist1 (GeneID 38750) | DRSC25231 | 9.36e5 | 9.27e5 | 8.41e5 | 7.45e5 | inactive |
| cn (GeneID 35724) | DRSC07594 | 2.78e5 | 1.92e5 | 2.03e6 | 1.58e6 | inactive |
| dpr7 (GeneID 2768865) | DRSC17109 | 7.04e5 | 6.10e5 | 1.33e6 | 5.66e5 | inactive |
| dpr7 (GeneID 2768865) | DRSC26544 | 3.82e5 | 2.67e5 | 7.93e5 | 8.64e5 | inactive |
| babos (GeneID 37557) | DRSC03923 | 1.29e5 | 1.94e5 | 6.39e5 | 7.38e5 | inactive |
| babos (GeneID 37557) | DRSC04397 | 1.04e6 | 6.80e5 | 1.42e6 | 9.26e5 | inactive |
| Ir94c (GeneID 318727) | DRSC13539 | 99545 | 1.42e5 | 1.65e5 | 2.08e5 | inactive |
| Mst98Ca (GeneID 47854) | DRSC16749 | 5.59e5 | 5.34e5 | 1.18e6 | 1.50e6 | inactive |
| CG17746 (GeneID 38400) | DRSC08521 | 1.30e6 | 9.53e5 | 1.53e6 | 1.35e6 | inactive |
| CG17746 (GeneID 38400) | DRSC23333 | 4.86e5 | 6.35e5 | 9.02e5 | 1.20e6 | inactive |
| Bap55 (GeneID 36956) | DRSC07000 | 2.00e6 | 2.04e6 | 2.47e6 | 2.46e6 | inactive |
| mtg (GeneID 40970) | DRSC16256 | 1.03e5 | 1.12e5 | 1.69e6 | 1.33e6 | inactive |
| mtg (GeneID 40970) | DRSC24674 | 8.70e5 | 8.34e5 | 9.99e5 | 9.40e5 | inactive |

Reagents above marked active:
| gene knocked down | DRSC id | firefly reporter light, replicate 1 | firefly reporter light, replicate 2 | Renilla control light, replicate 1 | Renilla control light, replicate 2 | activity call |
| --- | --- | --- | --- | --- | --- | --- |
| IA-2 (GeneID 33277) | DRSC00652 | 3.90e5 | 4.87e5 | 1.94e6 | 1.38e6 | active |
